No constants are given. Whether binding was seen depends on the method and setting. Binding seen in cells or lysates may run through a third protein. Binding can be weak; no strength is given. Sequences can lack the tags named with a protein.

By UniProt entry, the sequences of proteins in these tests, tags left out. Where a name states a change or a piece, a line headed by the entry shows the natural chain unless it says otherwise.
UniProt Q9JHF5: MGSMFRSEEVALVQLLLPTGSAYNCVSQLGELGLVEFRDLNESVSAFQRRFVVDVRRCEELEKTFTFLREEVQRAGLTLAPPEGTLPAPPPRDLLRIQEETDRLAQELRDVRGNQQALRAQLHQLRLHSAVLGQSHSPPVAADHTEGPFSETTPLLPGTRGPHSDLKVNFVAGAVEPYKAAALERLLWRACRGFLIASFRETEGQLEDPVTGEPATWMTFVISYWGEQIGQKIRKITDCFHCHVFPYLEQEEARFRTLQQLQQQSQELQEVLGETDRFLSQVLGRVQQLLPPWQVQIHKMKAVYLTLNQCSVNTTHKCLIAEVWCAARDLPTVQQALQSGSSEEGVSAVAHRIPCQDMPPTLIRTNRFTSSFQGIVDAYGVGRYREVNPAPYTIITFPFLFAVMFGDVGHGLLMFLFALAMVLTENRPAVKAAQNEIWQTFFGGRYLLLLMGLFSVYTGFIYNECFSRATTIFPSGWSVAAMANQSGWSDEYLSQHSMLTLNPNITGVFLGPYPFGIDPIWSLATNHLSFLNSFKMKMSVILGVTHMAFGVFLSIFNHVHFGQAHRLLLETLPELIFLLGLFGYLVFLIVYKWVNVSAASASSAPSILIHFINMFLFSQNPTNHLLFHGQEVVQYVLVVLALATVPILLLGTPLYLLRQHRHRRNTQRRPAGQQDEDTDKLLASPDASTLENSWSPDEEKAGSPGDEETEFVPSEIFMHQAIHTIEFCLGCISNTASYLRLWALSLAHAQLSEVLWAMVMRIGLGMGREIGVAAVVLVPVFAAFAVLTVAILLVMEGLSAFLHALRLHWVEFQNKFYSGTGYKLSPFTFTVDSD

In test [1] the target is T1, FLAG-Rab27A(T23N) (UniProt Q9ERI2).
T1 sequence: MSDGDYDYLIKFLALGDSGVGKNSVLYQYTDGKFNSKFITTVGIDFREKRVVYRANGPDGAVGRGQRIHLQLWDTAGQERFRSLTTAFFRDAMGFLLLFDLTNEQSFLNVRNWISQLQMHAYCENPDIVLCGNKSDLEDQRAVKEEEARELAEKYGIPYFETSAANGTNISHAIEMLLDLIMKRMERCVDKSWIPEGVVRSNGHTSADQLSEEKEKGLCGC
As to the kind of experiment: co-IP; HEK293T post-nuclear supernatant centrifuged at 100,000 x g for 30 min into membrane and soluble fractions; immunoprecipitation buffer added; anti-FLAG precipitation; western blot. (In general: In western blotting, separated proteins are transferred to a membrane and probed.)

The target of test [2] is T1, FLAG-Rab27A(T23N). Description: co-IP; co-expression in HEK293T; lysate in 1% Triton X-100, 10% glycerol, 50 mM Tris-HCl pH 7.4, 150 mM NaCl, 1 mM DTT, 1 mM EDTA; anti-FLAG M2-agarose, 2 h at 4 °C; western blot.
Test [3] has as its target FLAG-tagged a3 subunit isoform of V-ATPase (UniProt Q9JHF5). The description is as above.

In the case of “V5-tagged a3 subunit isoform of V-ATPase (from UniProt Q9JHF5)”, the binding result in the test with FLAG-Rab27A(T23N) [1] and with FLAG-Rab27A(T23N) [2] was “binds” each time.

B1: V5-EPI64, the Rab27A GTPase-activating protein (GAP) (protein, UniProt P58802 1-500)
chain: MAKSSRENGPREPAAGGSLSGTRESLAQGPDAATADELSSLGSDSEANGFAERRIDKFGFIVGSQGAEGALEEVPLEVLRQRESKWLDMLNNWDKWMAKKHKKIRLRCQKGIPPSLRGRAWQYLSGGKVKLQQNPGKFDELDMSPGDPKWLDVIERDLHRQFPFHEMFVSRGGHGQQDLFRVLKAYTLYRPEEGYCQAQAPIAAVLLMHMPAEQAFWCLVQVCEKYLPGYYSEKLEAIQLDGEILFSLLQKVSPVAHKHLSRQKIDPLLYMTEWFMCAFARTLPWSSVLRVWDMFFCEGVKIIFRVGLVLLKHALGSPEKLKACQGQYETIEQLRSLSPKIMQEAFLVQEVIELPVTERQIEREHLIQLRRWQETRGELECRSLPRMHGAKAILDAEPGPRPALQPSPSIRLPPDAALLSSKAKPHKQAQKEQKRTKTSAQLDKSPGLSQATVVTAAGDACPPQGVSPKDPVPQDPTPQNLACHHSQESLTSQESEDTYL
As to B1, the binding entry in test [3] is listed as “no binding”.

B2: V5-fused Rab27A T23N (GDP-bound form) (protein, UniProt Q9ERI2 1-221)
chain: MSDGDYDYLIKFLALGDSGVGKNSVLYQYTDGKFNSKFITTVGIDFREKRVVYRANGPDGAVGRGQRIHLQLWDTAGQERFRSLTTAFFRDAMGFLLLFDLTNEQSFLNVRNWISQLQMHAYCENPDIVLCGNKSDLEDQRAVKEEEARELAEKYGIPYFETSAANGTNISHAIEMLLDLIMKRMERCVDKSWIPEGVVRSNGHTSADQLSEEKEKGLCGC
In the case of B2, the binding result in test [3] is “binds”.

B3: V5-fused Rab27A Q78L (GTP-bound form) (protein, UniProt Q9ERI2 1-221)
chain: MSDGDYDYLIKFLALGDSGVGKTSVLYQYTDGKFNSKFITTVGIDFREKRVVYRANGPDGAVGRGQRIHLQLWDTAGLERFRSLTTAFFRDAMGFLLLFDLTNEQSFLNVRNWISQLQMHAYCENPDIVLCGNKSDLEDQRAVKEEEARELAEKYGIPYFETSAANGTNISHAIEMLLDLIMKRMERCVDKSWIPEGVVRSNGHTSADQLSEEKEKGLCGC
As for B3, the binding entry in test [3] is reported as “no binding”.

These data come from PMC12125285.
